This note sets out measurements from US20110038885A1 (priority 2007, published 2011).

The data set in a line: general procedure: Fmoc solid-phase peptide synthesis; Rink Amide MBHA resin (0.58 mmol/g or 0.78 mmol/g); Wang resin for C-terminal acids; DIC/HOBt. As to conditions: whole synthesis, analytical HPLC, scale of the general procedure 0.090 mmol.

Bridge positions count the residues as written; N and C are the ends. Square brackets hold non-standard residues; d marks the D form. * marks the point of attachment. Lauroyl = CCCCCCCCCCCC(=O)*; X4 = O=C(c1cc2ccccc2[nH]1)*; Ac6c = NC1(C(=O)O)CCCCC1; Isobutyryl = CC(C)C(=O)*; Octanoyl = CCCCCCCC(=O)*; Orn = NCCC[C@H](N)C(=O)O; dDap = NC[C@@H](N)C(=O)O; Dap = NC[C@H](N)C(=O)O; Butyryl = CCCC(=O)*; Bz = O=C(c1ccccc1)*; Ava = NCCCCC(=O)O

For “H-LDPKQKWCIQC-NH2 (disulfide 8-11; SMILES CC[C@H](C)[C@@H]1NC(=O)[C@@H](NC(=O)[C@H](Cc2c[nH]c3ccccc23)NC(=O)[C@H](CCCCN)NC(=O)[C@H](CCC(N)=O)NC(=O)[C@H](CCCCN)NC(=O)[C@@H]2CCCN2C(=O)[C@H](CC(=O)O)NC(=O)[C@@H](N)CC(C)C)CSSC[C@@H](C(N)=O)NC(=O)[C@H](CCC(N)=O)NC1=O)”, the “purity (crude or final not stated)” value is on record as 88%.

In the case of “Ac-EKWIQ[Dap]-NH2 (lactam 1-6; SMILES CC[C@H](C)[C@@H]1NC(=O)[C@H](Cc2c[nH]c3ccccc23)NC(=O)[C@H](CCCCN)NC(=O)[C@@H](NC(C)=O)CCC(=O)NC[C@@H](C(N)=O)NC(=O)[C@H](CCC(N)=O)NC1=O)”, the “purity (crude or final not stated)” value is recorded as 97.2%.

Turning to “H-CDPKQKWIQC-NH2 (disulfide 1-10; SMILES CC[C@H](C)[C@@H]1NC(=O)[C@H](Cc2c[nH]c3ccccc23)NC(=O)[C@H](CCCCN)NC(=O)[C@H](CCC(N)=O)NC(=O)[C@H](CCCCN)NC(=O)[C@@H]2CCCN2C(=O)[C@H](CC(=O)O)NC(=O)[C@@H](N)CSSC[C@@H](C(N)=O)NC(=O)[C@H](CCC(N)=O)NC1=O)”, the “purity (crude or final not stated)” value was 96.6%.

In the case of “Ac-DKWIQ[Orn]-NH2 (lactam 1-6; SMILES CC[C@H](C)[C@@H]1NC(=O)[C@H](Cc2c[nH]c3ccccc23)NC(=O)[C@H](CCCCN)NC(=O)[C@@H](NC(C)=O)CC(=O)NCCC[C@@H](C(N)=O)NC(=O)[C@H](CCC(N)=O)NC1=O)”, the “purity (crude or final not stated)” value is listed as 97.3%.

“Ac-CLDPKQKWIQC[dDap]-NH2 (disulfide 1-11; SMILES CC[C@H](C)[C@@H]1NC(=O)[C@H](Cc2c[nH]c3ccccc23)NC(=O)[C@H](CCCCN)NC(=O)[C@H](CCC(N)=O)NC(=O)[C@H](CCCCN)NC(=O)[C@@H]2CCCN2C(=O)[C@H](CC(=O)O)NC(=O)[C@H](CC(C)C)NC(=O)[C@@H](NC(C)=O)CSSC[C@@H](C(=O)N[C@H](CN)C(N)=O)NC(=O)[C@H](CCC(N)=O)NC1=O)”: the “purity (crude or final not stated)” value is on record as 99%.

“Ac-LDCPKQKWIQC-NH2 (disulfide 3-11; SMILES CC[C@H](C)[C@@H]1NC(=O)[C@H](Cc2c[nH]c3ccccc23)NC(=O)[C@H](CCCCN)NC(=O)[C@H](CCC(N)=O)NC(=O)[C@H](CCCCN)NC(=O)[C@@H]2CCCN2C(=O)[C@@H](NC(=O)[C@H](CC(=O)O)NC(=O)[C@H](CC(C)C)NC(C)=O)CSSC[C@@H](C(N)=O)NC(=O)[C@H](CCC(N)=O)NC1=O)”: the “purity (crude or final not stated)” value stood at 95.4%.

In the case of “Butyryl-CKWIQC-NH2 (disulfide 1-6; SMILES CCCC(=O)N[C@H]1CSSC[C@@H](C(N)=O)NC(=O)[C@H](CCC(N)=O)NC(=O)[C@H]([C@@H](C)CC)NC(=O)[C@H](Cc2c[nH]c3ccccc23)NC(=O)[C@H](CCCCN)NC1=O)”, the “purity (crude or final not stated)” value was 88.1%.

In the case of “Ac-DKWIQK-NH2 (lactam 1-6; SMILES CC[C@H](C)[C@@H]1NC(=O)[C@H](Cc2c[nH]c3ccccc23)NC(=O)[C@H](CCCCN)NC(=O)[C@@H](NC(C)=O)CC(=O)NCCCC[C@@H](C(N)=O)NC(=O)[C@H](CCC(N)=O)NC1=O)”, the “purity (crude or final not stated)” value was determined as 99%.

As to “Isobutyryl-[dC][dQ][dI][dW][dK][dC]-NH2 (disulfide 1-6; SMILES CC[C@@H](C)[C@H]1NC(=O)[C@@H](CCC(N)=O)NC(=O)[C@H](NC(=O)C(C)C)CSSC[C@H](C(N)=O)NC(=O)[C@@H](CCCCN)NC(=O)[C@@H](Cc2c[nH]c3ccccc23)NC1=O)”, the “purity (crude or final not stated)” value is reported as 81.4%.

As to “[aminoPeg10-oxaglutaryl]2-c(D-Cys-D-Gln-D-Ile-D-Trp-D-Lys-D-Gln-D-Lys-D-Pro-D-Asp-D-Leu-D-Cys)-NH2”, the “purity (crude or final not stated)” value is 95%.

“Ac-K(Lauroyl)CLDPKQKWIQC-NH2 (disulfide 2-12; SMILES CCCCCCCCCCCC(=O)NCCCC[C@H](NC(C)=O)C(=O)N[C@H]1CSSC[C@@H](C(N)=O)NC(=O)[C@H](CCC(N)=O)NC(=O)[C@H]([C@@H](C)CC)NC(=O)[C@H](Cc2c[nH]c3ccccc23)NC(=O)[C@H](CCCCN)NC(=O)[C@H](CCC(N)=O)NC(=O)[C@H](CCCCN)NC(=O)[C@@H]2CCCN2C(=O)[C@H](CC(=O)O)NC(=O)[C@H](CC(C)C)NC1=O)”: the “purity (crude or final not stated)” value is recorded as 99%.

For “[Ava]KWIQD-NH2 (lactam N-6; SMILES CC[C@H](C)[C@@H]1NC(=O)[C@H](Cc2c[nH]c3ccccc23)NC(=O)[C@H](CCCCN)NC(=O)CCCCNC(=O)C[C@@H](C(N)=O)NC(=O)[C@H](CCC(N)=O)NC1=O)”, the “purity (crude or final not stated)” value came out at 91.4%.

With “Ac-CPKQKWIQC[dD][dL]-NH2 (disulfide 1-9; SMILES CC[C@H](C)[C@@H]1NC(=O)[C@H](Cc2c[nH]c3ccccc23)NC(=O)[C@H](CCCCN)NC(=O)[C@H](CCC(N)=O)NC(=O)[C@H](CCCCN)NC(=O)[C@@H]2CCCN2C(=O)[C@@H](NC(C)=O)CSSC[C@@H](C(=O)N[C@H](CC(=O)O)C(=O)N[C@H](CC(C)C)C(N)=O)NC(=O)[C@H](CCC(N)=O)NC1=O)”, the “purity (crude or final not stated)” value amounted to 90.5%.

Turning to c(Diglycolyl-Lys-Trp-Ile-Gln-Lys)-NH2, the “purity (crude or final not stated)” value worked out at 99.9%.

Consider “H-LDCPKQKWIQC-NH2 (disulfide 3-11; SMILES CC[C@H](C)[C@@H]1NC(=O)[C@H](Cc2c[nH]c3ccccc23)NC(=O)[C@H](CCCCN)NC(=O)[C@H](CCC(N)=O)NC(=O)[C@H](CCCCN)NC(=O)[C@@H]2CCCN2C(=O)[C@@H](NC(=O)[C@H](CC(=O)O)NC(=O)[C@@H](N)CC(C)C)CSSC[C@@H](C(N)=O)NC(=O)[C@H](CCC(N)=O)NC1=O)”, for which the “purity (crude or final not stated)” value is recorded as 96%.

As for “X4-CKWIQC-NH2 (disulfide 1-6; SMILES CC[C@H](C)[C@@H]1NC(=O)[C@H](Cc2c[nH]c3ccccc23)NC(=O)[C@H](CCCCN)NC(=O)[C@@H](NC(=O)c2cc3ccccc3[nH]2)CSSC[C@@H](C(N)=O)NC(=O)[C@H](CCC(N)=O)NC1=O)”, the “purity (crude or final not stated)” value is listed as 96.2%.

Turning to “H-KCQKWIQC-NH2 (disulfide 2-8; SMILES CC[C@H](C)[C@@H]1NC(=O)[C@H](Cc2c[nH]c3ccccc23)NC(=O)[C@H](CCCCN)NC(=O)[C@H](CCC(N)=O)NC(=O)[C@@H](NC(=O)[C@@H](N)CCCCN)CSSC[C@@H](C(N)=O)NC(=O)[C@H](CCC(N)=O)NC1=O)”, the “purity (crude or final not stated)” value is listed as 97.6%.

“H-[dC][dQ][dI][dW][dK][dQ][dK][dP][dD][dL][dC][dV][dE]K(Octanoyl)-OH (disulfide 1-11; SMILES CCCCCCCC(=O)NCCCC[C@H](NC(=O)[C@@H](CCC(=O)O)NC(=O)[C@H](NC(=O)[C@H]1CSSC[C@@H](N)C(=O)N[C@H](CCC(N)=O)C(=O)N[C@H]([C@H](C)CC)C(=O)N[C@H](Cc2c[nH]c3ccccc23)C(=O)N[C@H](CCCCN)C(=O)N[C@H](CCC(N)=O)C(=O)N[C@H](CCCCN)C(=O)N2CCC[C@@H]2C(=O)N[C@H](CC(=O)O)C(=O)N[C@H](CC(C)C)C(=O)N1)C(C)C)C(=O)O)”: the “purity (crude or final not stated)” value was found to be 99%.

As for “H-[dC]LDPKQKWIQC-NH2 (disulfide 1-11; SMILES CC[C@H](C)[C@@H]1NC(=O)[C@H](Cc2c[nH]c3ccccc23)NC(=O)[C@H](CCCCN)NC(=O)[C@H](CCC(N)=O)NC(=O)[C@H](CCCCN)NC(=O)[C@@H]2CCCN2C(=O)[C@H](CC(=O)O)NC(=O)[C@H](CC(C)C)NC(=O)[C@H](N)CSSC[C@@H](C(N)=O)NC(=O)[C@H](CCC(N)=O)NC1=O)”, the “purity (crude or final not stated)” value is 95.9%.

For the substance “H-CLDPKQKWIQC-NH2 (disulfide 1-11; SMILES CC[C@H](C)[C@@H]1NC(=O)[C@H](Cc2c[nH]c3ccccc23)NC(=O)[C@H](CCCCN)NC(=O)[C@H](CCC(N)=O)NC(=O)[C@H](CCCCN)NC(=O)[C@@H]2CCCN2C(=O)[C@H](CC(=O)O)NC(=O)[C@H](CC(C)C)NC(=O)[C@@H](N)CSSC[C@@H](C(N)=O)NC(=O)[C@H](CCC(N)=O)NC1=O)”, the “purity (crude or final not stated)” value worked out at 98%.

In the case of c(Adipoyl-Lys-Trp-Ile-Gln-Dab)-NH2, the “purity (crude or final not stated)” value was 99.9%.

“Ac-C[Ac6c]DPKQKWQC-NH2 (disulfide 1-10; SMILES CC(=O)N[C@H]1CSSC[C@@H](C(N)=O)NC(=O)[C@H](CCC(N)=O)NC(=O)[C@H](Cc2c[nH]c3ccccc23)NC(=O)[C@H](CCCCN)NC(=O)[C@H](CCC(N)=O)NC(=O)[C@H](CCCCN)NC(=O)[C@@H]2CCCN2C(=O)[C@H](CC(=O)O)NC(=O)C2(CCCCC2)NC1=O)”: the “purity (crude or final not stated)” value was 94%.

For “Bz-[dC][dQ][dI][dW][dK][dC]-NH2 (disulfide 1-6; SMILES CC[C@@H](C)[C@H]1NC(=O)[C@@H](CCC(N)=O)NC(=O)[C@H](NC(=O)c2ccccc2)CSSC[C@H](C(N)=O)NC(=O)[C@@H](CCCCN)NC(=O)[C@@H](Cc2c[nH]c3ccccc23)NC1=O)”, the “purity (crude or final not stated)” value is 91.2%.

As for “Isobutyryl-CKWIQC-NH2 (disulfide 1-6; SMILES CC[C@H](C)[C@@H]1NC(=O)[C@H](Cc2c[nH]c3ccccc23)NC(=O)[C@H](CCCCN)NC(=O)[C@@H](NC(=O)C(C)C)CSSC[C@@H](C(N)=O)NC(=O)[C@H](CCC(N)=O)NC1=O)”, the “purity (crude or final not stated)” value was determined as 93.9%.

As for “Ac-LCDPKQKWIQC-NH2 (disulfide 2-11; SMILES CC[C@H](C)[C@@H]1NC(=O)[C@H](Cc2c[nH]c3ccccc23)NC(=O)[C@H](CCCCN)NC(=O)[C@H](CCC(N)=O)NC(=O)[C@H](CCCCN)NC(=O)[C@@H]2CCCN2C(=O)[C@H](CC(=O)O)NC(=O)[C@@H](NC(=O)[C@H](CC(C)C)NC(C)=O)CSSC[C@@H](C(N)=O)NC(=O)[C@H](CCC(N)=O)NC1=O)”, the “purity (crude or final not stated)” value is 93.2%.

Turning to “Ac-[Orn]KWIQE-NH2 (lactam 1-6; SMILES CC[C@H](C)[C@@H]1NC(=O)[C@H](Cc2c[nH]c3ccccc23)NC(=O)[C@H](CCCCN)NC(=O)[C@@H](NC(C)=O)CCCNC(=O)CC[C@@H](C(N)=O)NC(=O)[C@H](CCC(N)=O)NC1=O)”, the “purity (crude or final not stated)” value amounted to 96.2%.

With “Ac-CLDPKQ[dK]WIQC-NH2 (disulfide 1-11; SMILES CC[C@H](C)[C@@H]1NC(=O)[C@H](Cc2c[nH]c3ccccc23)NC(=O)[C@@H](CCCCN)NC(=O)[C@H](CCC(N)=O)NC(=O)[C@H](CCCCN)NC(=O)[C@@H]2CCCN2C(=O)[C@H](CC(=O)O)NC(=O)[C@H](CC(C)C)NC(=O)[C@@H](NC(C)=O)CSSC[C@@H](C(N)=O)NC(=O)[C@H](CCC(N)=O)NC1=O)”, the “purity (crude or final not stated)” value turned out to be 89.6%.
